In PMC11843240:
Results are given in words; binding and its absence hold for the method and conditions named. In cells and extracts the contact can be indirect. Some entries that bind do so weakly or less than the wild type.

By UniProt entry, the sequences of proteins in these tests, tags left out.
UniProt O08530: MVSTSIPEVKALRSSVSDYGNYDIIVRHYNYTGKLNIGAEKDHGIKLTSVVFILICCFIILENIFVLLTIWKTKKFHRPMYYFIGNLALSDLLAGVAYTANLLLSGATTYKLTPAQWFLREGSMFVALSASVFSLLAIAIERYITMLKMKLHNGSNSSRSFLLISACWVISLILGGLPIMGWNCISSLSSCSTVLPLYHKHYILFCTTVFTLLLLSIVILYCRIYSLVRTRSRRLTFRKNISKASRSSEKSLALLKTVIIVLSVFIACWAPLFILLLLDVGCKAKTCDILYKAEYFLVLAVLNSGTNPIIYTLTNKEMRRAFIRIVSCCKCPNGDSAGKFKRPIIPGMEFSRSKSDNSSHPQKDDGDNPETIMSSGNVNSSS

Target: Sphingosine-1-phosphate receptor-1 (mouse (endogenous in SVEC4-10)) (UniProt O08530)
Experiment: co-IP; SVEC4-10 lysate in modified RIPA buffer; anti-S1PR1 (1:100) or normal IgG overnight, Protein A/G beads; immunoblot

binding: binds
B1: lymphatic vessel endothelial hyaluronan receptor 1 (receptor, UniProt Q8BHC0 24-318)
chain: ADLVQDLSISTCRIMGVALVGRNKNPQMNFTEANEACKMLGLTLASRDQVESAQKSGFETCSYGWVGEQFSVIPRIFSNPRCGKNGKGVLIWNAPSSQKFKAYCHNSSDTWVNSCIPEIVTTFYPVLDTQTPATEFSVSSSAYLASSPDSTTPVSATTRAPPLTSMARKTKKICITEVYTEPITMATETEAFVASGAAFKNEAAGFGGVPTALLVLALLFFGAAAVLAVCYVKRYVKAFPFTTKNQQKEMIETKVVKEEKADDVNANEESKKTIKNPEEAKSPPKTTVRCLEAEV
